Publication PMC11169917
These are yes or no findings as the source states them, for the method shown. In cells and extracts the contact can be indirect. Some entries that bind do so weakly or less than the wild type.

By UniProt entry, the sequences of proteins in these tests, tags left out.
UniProt O00311: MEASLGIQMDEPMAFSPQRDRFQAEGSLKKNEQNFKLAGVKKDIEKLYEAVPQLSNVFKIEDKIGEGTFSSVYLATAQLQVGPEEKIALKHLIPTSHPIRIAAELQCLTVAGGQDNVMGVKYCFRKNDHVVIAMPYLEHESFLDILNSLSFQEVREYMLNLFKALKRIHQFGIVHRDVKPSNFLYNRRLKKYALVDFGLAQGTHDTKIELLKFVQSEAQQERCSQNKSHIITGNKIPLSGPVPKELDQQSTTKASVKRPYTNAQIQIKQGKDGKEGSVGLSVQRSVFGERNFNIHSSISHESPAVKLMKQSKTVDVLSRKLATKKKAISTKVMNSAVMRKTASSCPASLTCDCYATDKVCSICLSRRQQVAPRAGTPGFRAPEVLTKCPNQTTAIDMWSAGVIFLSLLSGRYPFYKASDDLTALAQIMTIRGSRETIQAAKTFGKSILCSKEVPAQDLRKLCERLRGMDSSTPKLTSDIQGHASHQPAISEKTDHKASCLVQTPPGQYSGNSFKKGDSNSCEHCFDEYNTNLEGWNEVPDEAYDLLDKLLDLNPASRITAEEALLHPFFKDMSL

Biological target: T1, DRF1 (DBF4 related factor 1) (human (endogenous in MCF10A)) (UniProt Q8NFT6)
T1 sequence: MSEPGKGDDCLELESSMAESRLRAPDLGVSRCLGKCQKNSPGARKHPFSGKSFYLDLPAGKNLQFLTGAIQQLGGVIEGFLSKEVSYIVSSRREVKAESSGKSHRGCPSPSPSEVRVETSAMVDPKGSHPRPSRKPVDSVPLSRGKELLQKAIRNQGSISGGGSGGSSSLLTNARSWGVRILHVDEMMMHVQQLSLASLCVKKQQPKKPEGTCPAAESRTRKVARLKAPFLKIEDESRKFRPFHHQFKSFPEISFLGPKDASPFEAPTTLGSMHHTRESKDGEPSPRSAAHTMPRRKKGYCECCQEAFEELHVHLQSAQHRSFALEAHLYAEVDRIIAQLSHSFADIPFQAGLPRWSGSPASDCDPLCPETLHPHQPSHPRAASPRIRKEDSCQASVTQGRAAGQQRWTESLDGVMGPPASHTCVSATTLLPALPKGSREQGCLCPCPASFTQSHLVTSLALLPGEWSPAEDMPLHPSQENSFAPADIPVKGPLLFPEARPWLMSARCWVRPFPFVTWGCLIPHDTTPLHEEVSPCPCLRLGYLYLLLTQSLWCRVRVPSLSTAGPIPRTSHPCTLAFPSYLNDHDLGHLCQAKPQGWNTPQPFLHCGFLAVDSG
Test: co-IP; anti-DRF1 mAb 5G4 (or mouse IgG as control) prebound to protein A/G beads; 1 mg precleared MCF10A EditR lysate in CSK buffer (300 mM NaCl, 10 mM PIPES pH 6.8, 300 mM sucrose, 1.5 mM MgCl2, 1 mM DTT, 0.5% Triton X-100); 2 h at 4°C; 5 washes; CDC7 detected by western blot

CDC7 kinase (from UniProt O00311 1-574) (enzyme)
binding: binds
